Assay results published in publication PMC12124498.
These are yes or no findings as the source states them, for the method shown. Binding seen in cells or lysates may run through a third protein. Here binding means that the protein was enriched with, or labelled near, the bait; the list need not be complete.

Chains of the proteins cited; added tags and fusions are not shown.
UniProt P26368: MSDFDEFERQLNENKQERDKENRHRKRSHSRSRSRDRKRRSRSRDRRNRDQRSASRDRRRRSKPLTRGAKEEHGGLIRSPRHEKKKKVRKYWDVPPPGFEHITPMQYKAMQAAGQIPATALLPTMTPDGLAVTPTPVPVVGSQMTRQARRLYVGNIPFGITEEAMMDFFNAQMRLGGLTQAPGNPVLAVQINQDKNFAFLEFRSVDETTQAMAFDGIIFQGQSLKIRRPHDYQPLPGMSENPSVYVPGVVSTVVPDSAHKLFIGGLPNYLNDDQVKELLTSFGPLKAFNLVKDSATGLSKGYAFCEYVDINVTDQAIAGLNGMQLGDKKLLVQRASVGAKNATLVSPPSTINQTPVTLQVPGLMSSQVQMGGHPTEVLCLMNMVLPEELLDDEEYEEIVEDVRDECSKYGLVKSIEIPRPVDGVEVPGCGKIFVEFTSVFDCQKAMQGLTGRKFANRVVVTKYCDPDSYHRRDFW
UniProt Q99081: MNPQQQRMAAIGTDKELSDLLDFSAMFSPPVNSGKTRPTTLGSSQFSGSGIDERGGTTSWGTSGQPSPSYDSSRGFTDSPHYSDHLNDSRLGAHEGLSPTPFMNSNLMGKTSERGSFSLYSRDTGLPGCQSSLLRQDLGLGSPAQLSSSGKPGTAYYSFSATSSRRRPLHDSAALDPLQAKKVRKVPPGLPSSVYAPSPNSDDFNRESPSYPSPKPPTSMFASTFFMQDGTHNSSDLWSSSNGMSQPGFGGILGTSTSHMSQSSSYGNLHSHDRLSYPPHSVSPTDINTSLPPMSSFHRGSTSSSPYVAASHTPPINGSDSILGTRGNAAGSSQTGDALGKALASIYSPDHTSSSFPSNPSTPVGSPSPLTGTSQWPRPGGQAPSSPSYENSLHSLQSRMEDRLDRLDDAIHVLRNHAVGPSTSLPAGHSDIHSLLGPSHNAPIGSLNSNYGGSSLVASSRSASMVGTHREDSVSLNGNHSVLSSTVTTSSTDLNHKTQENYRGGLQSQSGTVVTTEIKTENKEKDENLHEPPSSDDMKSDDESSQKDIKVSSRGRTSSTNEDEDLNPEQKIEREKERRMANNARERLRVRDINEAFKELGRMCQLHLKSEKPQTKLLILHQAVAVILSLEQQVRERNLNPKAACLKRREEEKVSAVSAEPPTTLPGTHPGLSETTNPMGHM
UniProt P17096: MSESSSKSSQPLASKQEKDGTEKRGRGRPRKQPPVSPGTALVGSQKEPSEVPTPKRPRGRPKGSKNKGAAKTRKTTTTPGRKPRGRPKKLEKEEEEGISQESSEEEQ
UniProt Q14974: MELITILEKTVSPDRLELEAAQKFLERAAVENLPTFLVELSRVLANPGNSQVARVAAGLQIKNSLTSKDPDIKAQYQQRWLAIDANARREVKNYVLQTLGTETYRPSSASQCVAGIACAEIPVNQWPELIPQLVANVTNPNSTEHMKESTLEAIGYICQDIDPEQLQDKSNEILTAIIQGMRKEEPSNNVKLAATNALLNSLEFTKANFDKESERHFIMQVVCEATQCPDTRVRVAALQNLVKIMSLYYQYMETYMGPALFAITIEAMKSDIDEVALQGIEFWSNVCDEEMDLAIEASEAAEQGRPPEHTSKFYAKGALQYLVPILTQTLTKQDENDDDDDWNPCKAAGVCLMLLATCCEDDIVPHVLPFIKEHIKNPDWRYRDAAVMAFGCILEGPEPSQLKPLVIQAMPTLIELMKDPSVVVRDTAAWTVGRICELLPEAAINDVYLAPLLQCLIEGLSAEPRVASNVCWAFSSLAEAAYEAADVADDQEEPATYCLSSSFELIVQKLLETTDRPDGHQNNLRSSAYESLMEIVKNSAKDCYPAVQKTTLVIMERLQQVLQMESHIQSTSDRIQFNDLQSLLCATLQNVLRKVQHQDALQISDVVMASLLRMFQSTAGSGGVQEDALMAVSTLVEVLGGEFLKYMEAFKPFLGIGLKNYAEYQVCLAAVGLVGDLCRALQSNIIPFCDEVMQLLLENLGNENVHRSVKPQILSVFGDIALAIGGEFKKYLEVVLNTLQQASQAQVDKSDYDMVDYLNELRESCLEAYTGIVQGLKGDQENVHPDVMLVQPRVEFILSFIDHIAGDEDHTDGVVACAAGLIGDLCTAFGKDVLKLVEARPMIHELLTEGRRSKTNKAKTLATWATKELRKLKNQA
UniProt Q01844: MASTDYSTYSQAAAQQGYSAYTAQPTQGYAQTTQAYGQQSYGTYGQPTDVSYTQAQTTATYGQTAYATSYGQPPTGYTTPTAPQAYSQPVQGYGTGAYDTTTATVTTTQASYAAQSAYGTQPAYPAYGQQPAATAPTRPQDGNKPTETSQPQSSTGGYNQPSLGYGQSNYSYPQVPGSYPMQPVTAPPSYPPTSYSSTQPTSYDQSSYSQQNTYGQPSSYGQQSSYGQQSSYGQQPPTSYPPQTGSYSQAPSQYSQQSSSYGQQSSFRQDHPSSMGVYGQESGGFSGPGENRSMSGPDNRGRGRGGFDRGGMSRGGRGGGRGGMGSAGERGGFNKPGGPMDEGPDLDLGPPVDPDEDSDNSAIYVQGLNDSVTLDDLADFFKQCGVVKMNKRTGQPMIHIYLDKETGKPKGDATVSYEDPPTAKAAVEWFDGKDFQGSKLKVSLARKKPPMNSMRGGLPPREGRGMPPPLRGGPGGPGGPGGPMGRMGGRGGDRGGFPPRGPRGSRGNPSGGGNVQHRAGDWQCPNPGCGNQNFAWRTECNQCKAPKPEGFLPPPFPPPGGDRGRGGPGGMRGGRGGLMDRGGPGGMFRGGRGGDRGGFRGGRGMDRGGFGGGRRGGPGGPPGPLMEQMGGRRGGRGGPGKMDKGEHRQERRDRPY
UniProt Q01995: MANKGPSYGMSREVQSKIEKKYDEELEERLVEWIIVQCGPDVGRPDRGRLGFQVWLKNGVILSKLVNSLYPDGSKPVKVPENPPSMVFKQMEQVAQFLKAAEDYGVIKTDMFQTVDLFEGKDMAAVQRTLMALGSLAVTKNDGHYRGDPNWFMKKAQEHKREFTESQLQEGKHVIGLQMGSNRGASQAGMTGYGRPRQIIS
UniProt O15042: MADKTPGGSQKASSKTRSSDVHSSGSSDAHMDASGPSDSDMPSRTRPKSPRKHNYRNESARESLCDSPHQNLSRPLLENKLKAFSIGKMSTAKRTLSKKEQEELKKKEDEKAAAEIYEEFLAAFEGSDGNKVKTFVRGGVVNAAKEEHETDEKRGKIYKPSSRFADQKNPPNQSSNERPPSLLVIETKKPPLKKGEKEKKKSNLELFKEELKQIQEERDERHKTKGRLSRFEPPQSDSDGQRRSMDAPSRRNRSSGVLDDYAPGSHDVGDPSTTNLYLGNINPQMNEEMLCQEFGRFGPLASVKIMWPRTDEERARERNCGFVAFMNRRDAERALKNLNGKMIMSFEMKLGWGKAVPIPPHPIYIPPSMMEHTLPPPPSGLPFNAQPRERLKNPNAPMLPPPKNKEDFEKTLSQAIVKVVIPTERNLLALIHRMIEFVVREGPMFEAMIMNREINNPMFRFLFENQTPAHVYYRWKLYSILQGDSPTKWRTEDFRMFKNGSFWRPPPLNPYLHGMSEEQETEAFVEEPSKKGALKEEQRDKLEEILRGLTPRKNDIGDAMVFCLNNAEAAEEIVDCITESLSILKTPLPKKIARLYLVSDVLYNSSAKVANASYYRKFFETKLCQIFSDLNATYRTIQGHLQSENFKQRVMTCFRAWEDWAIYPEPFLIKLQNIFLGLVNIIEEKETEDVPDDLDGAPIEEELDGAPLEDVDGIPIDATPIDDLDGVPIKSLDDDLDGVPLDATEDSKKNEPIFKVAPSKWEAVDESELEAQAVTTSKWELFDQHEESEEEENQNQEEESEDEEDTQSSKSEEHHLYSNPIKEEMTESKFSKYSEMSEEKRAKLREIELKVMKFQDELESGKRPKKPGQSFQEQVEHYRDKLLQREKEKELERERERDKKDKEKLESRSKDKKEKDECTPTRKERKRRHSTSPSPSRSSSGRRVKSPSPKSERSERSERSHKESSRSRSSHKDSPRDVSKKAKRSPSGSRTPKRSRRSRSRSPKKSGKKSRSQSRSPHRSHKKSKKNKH
UniProt Q9BRT6: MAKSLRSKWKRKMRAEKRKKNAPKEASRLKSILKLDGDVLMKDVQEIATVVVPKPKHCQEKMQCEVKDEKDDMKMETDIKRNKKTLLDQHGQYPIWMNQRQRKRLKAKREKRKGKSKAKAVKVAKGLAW
UniProt P18583: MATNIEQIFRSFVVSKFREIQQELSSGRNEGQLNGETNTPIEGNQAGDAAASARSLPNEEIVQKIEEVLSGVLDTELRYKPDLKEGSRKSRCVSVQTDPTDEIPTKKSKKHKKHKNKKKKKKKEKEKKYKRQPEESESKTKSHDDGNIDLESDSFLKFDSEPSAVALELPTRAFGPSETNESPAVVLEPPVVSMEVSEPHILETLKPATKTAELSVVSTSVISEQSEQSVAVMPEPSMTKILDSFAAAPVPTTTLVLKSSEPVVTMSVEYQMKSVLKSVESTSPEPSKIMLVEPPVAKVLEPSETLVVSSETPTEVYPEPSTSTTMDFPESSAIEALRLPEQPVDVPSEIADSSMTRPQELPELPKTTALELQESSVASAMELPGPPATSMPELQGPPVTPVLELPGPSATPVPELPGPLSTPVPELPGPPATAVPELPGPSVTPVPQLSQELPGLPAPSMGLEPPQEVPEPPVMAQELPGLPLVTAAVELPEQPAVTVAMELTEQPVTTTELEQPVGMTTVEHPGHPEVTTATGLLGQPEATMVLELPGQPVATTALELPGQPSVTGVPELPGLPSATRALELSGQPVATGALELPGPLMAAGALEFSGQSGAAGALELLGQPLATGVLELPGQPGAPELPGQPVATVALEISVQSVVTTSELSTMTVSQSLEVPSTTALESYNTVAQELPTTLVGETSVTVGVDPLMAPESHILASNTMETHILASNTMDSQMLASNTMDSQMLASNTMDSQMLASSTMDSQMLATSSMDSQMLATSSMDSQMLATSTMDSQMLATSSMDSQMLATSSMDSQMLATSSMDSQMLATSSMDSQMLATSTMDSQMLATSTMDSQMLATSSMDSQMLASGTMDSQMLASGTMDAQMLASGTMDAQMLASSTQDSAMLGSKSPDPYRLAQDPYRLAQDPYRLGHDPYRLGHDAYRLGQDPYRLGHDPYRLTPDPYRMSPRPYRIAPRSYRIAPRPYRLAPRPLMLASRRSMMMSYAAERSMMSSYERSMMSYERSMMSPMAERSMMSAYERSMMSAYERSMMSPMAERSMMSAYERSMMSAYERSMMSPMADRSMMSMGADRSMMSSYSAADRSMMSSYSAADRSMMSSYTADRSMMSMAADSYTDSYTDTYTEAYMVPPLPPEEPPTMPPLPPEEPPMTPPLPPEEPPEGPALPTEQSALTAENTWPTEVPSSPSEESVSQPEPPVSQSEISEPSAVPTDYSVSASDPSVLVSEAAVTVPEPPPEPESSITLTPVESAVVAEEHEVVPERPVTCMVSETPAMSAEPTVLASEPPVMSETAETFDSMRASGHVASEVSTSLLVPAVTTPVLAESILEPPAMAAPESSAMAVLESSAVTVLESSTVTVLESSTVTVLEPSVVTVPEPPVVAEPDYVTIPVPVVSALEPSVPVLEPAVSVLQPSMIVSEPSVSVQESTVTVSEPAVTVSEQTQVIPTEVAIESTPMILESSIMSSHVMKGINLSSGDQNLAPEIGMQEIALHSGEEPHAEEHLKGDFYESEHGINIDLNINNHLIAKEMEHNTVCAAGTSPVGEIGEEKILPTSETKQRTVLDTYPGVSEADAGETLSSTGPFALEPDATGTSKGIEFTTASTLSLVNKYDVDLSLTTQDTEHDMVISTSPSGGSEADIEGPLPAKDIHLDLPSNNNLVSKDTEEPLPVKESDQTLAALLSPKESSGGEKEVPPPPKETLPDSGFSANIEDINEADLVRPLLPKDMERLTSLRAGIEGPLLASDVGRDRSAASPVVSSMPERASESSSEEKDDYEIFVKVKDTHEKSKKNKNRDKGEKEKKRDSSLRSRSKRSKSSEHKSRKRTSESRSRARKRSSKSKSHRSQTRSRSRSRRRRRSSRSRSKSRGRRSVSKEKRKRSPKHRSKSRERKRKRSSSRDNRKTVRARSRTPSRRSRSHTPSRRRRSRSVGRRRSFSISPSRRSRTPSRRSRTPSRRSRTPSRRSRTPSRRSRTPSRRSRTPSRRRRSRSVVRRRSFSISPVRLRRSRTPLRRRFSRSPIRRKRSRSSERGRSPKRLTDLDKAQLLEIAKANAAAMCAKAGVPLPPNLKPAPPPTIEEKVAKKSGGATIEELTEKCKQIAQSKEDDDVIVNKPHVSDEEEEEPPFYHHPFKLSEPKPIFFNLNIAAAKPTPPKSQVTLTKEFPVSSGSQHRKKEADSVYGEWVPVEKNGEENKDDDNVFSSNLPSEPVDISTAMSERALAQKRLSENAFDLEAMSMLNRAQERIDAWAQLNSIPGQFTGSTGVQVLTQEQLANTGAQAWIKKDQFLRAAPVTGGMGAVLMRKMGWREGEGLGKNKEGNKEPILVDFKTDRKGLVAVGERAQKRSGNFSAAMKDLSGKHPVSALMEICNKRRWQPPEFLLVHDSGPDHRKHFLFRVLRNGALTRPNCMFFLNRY

B1: CCAR1 (protein, UniProt Q8IX12 1-1150)
chain: MAQFGGQKNPPWATQFTATAVSQPAALGVQQPSLLGASPTIYTQQTALAAAGLTTQTPANYQLTQTAALQQQAAAAAAALQQQYSQPQQALYSVQQQLQQPQQTLLTQPAVALPTSLSLSTPQPTAQITVSYPTPRSSQQQTQPQKQRVFTGVVTKLHDTFGFVDEDVFFQLSAVKGKTPQVGDRVLVEATYNPNMPFKWNAQRIQTLPNQNQSQTQPLLKTPPAVLQPIAPQTTFGVQTQPQPQSLLQAQISAASITPLLQTQPQPLLQQPQQKAGLLQPPVRIVSQPQPARRLDPPSRFSGRNDRGDQVPNRKDDRSRERERERRRSRERSPQRKRSRERSPRRERERSPRRVRRVVPRYTVQFSKFSLDCPSCDMMELRRRYQNLYIPSDFFDAQFTWVDAFPLSRPFQLGNYCNFYVMHREVESLEKNMAILDPPDADHLYSAKVMLMASPSMEDLYHKSCALAEDPQELRDGFQHPARLVKFLVGMKGKDEAMAIGGHWSPSLDGPDPEKDPSVLIKTAIRCCKALTGIDLSVCTQWYRFAEIRYHRPEETHKGRTVPAHVETVVLFFPDVWHCLPTRSEWETLSRGYKQQLVEKLQGERKEADGEQDEEEKDDGEAKEISTPTHWSKLDPKTMKVNDLRKELESRALSSKGLKSQLIARLTKQLKVEEQKEEQKELEKSEKEEDEDDDRKSEDDKEEEERKRQEEIERQRRERRYILPDEPAIIVHPNWAAKSGKFDCSIMSLSVLLDYRLEDNKEHSFEVSLFAELFNEMLQRDFGVRIYKSLLSLPEKEDKKEKDKKSKKDERKDKKEERDDETDEPKPKRRKSGDDKDKKEDRDERKKEDKRKDDSKDDDETEEDNNQDEYDPMEAEEAEDEEDDRDEEEMTKRDDKRDINRYCKERPSKDKEKEKTQMITINRDLLMAFVYFDQSHCGYLLEKDLEEILYTLGLHLSRAQVKKLLNKVVLRESCFYRKLTDTSKDEENHEESESLQEDMLGNRLLLPTPTVKQESKDVEENVGLIVYNGAMVDVGSLLQKLEKSEKVRAEVEQKLQLLEEKTDEDEKTILNLENSNKSLSGELREVKKDLSQLQENLKISENMNLQFENQMNKTIRNLSTVMDEIHTVLKKDNVKNEDKDQKSKENGASV
B2: TBCA (protein, UniProt O75347 1-108)
chain: MADPRVRQIKIKTGVVKRLVKEKVMYEKEAKQQEEKIEKMRAEDGENYDIKKQAEILQESRMMIPDCQRRLEAAYLDLQRILENEKDLEEAEEYKEARLVLDSVKLEA
B3: SARNP (protein, UniProt P82979 1-210)
chain: MATETVELHKLKLAELKQECLARGLETKGIKQDLIHRLQAYLEEHAEEEANEEDVLGDETEEEETKPIELPVKEEEPPEKTVDVAAEKKVVKITSEIPQTERMQKRAERFNVPVSLESKKAARAARFGISSVPTKGLSSDNKPMVNLDKLKERAQRFGLNVSSISRKSEDDEKLKKRKERFGIVTSSAGTGTTEDTEAKKRKRAERFGIA
B4: TXNL1 (protein, UniProt O43396 1-289)
chain: MVGVKPVGSDPDFQPELSGAGSRLAVVKFTMRGCGPCLRIAPAFSSMSNKYPQAVFLEVDVHQCQGTAATNNISATPTFLFFRNKVRIDQYQGADAVGLEEKIKQHLENDPGSNEDTDIPKGYMDLMPFINKAGCECLNESDEHGFDNCLRKDTTFLESDCDEQLLITVAFNQPVKLYSMKFQGPDNGQGPKYVKIFINLPRSMDFEEAERSEPTQALELTEDDIKEDGIVPLRYVKFQNVNSVTIFVQSNQGEEETTRISYFTFIGTPVQATNMNDFKRVVGKKGESH
B5: UBL5 (protein, UniProt Q9BZL1 1-73)
chain: MIEVVCNDRLGKKVRVKCNTDDTIGDLKKLIAAQTGTRWNKIVLKKWYTIFKDHVSLGDYEIHDGMNLELYYQ
B6: SMIM20 (protein, UniProt Q8N5G0 1-67)
chain: MSRNLRTALIFGGFISLIGAAFYPIYFRPLMRLEEYKKEQAINRAGIVQEDVQPPGLKVWSDPFGRK
B7: ZC3H14 (protein, UniProt Q6PJT7 1-736)
chain: MEIGTEISRKIRSAIKGKLQELGAYVDEELPDYIMVMVANKKSQDQMTEDLSLFLGNNTIRFTVWLHGVLDKLRSVTTEPSSLKSSDTNIFDSNVPSNKSNFSRGDERRHEAAVPPLAIPSARPEKRDSRVSTSSQESKTTNVRQTYDDGAATRLMSTVKPLREPAPSEDVIDIKPEPDDLIDEDLNFVQENPLSQKKPTVTLTYGSSRPSIEIYRPPASRNADSGVHLNRLQFQQQQNSIHAAKQLDMQSSWVYETGRLCEPEVLNSLEETYSPFFRNNSEKMSMEDENFRKRKLPVVSSVVKVKKFNHDGEEEEEDDDYGSRTGSISSSVSVPAKPERRPSLPPSKQANKNLILKAISEAQESVTKTTNYSTVPQKQTLPVAPRTRTSQEELLAEVVQGQSRTPRISPPIKEEETKGDSVEKNQGTQQRQLLSRLQIDPVMAETLQMSQDYYDMESMVHADTRSFILKKPKLSEEVVVAPNQESGMKTADSLRVLSGHLMQTRDLVQPDKPASPKFIVTLDGVPSPPGYMSDQEEDMCFEGMKPVNQTAASNKGLRGLLHPQQLHLLSRQLEDPNGSFSNAEMSELSVAQKPEKLLERCKYWPACKNGDECAYHHPISPCKAFPNCKFAEKCLFVHPNCKYDAKCTKPDCPFTHVSRRIPVLSPKPAVAPPAPPSSSQLCRYFPACKKMECPFYHPKHCRFNTQCTRPDCTFYHPTINVPPRHALKWIRPQTSE
B8: SEPT7 (protein, UniProt Q16181 1-437)
chain: MSVSARSAAAEERSVNSSTMVAQQKNLEGYVGFANLPNQVYRKSVKRGFEFTLMVVGESGLGKSTLINSLFLTDLYSPEYPGPSHRIKKTVQVEQSKVLIKEGGVQLLLTIVDTPGFGDAVDNSNCWQPVIDYIDSKFEDYLNAESRVNRRQMPDNRVQCCLYFIAPSGHGLKPLDIEFMKRLHEKVNIIPLIAKADTLTPEECQQFKKQIMKEIQEHKIKIYEFPETDDEEENKLVKKIKDRLPLAVVGSNTIIEVNGKRVRGRQYPWGVAEVENGEHCDFTILRNMLIRTHMQDLKDVTNNVHYENYRSRKLAAVTYNGVDNNKNKGQLTKSPLAQMEEERREHVAKMKKMEMEMEQVFEMKVKEKVQKLKDSEAELQRRHEQMKKNLEAQHKELEEKRRQFEDEKANWEAQQRILEQQNSSRTLEKNKKKGKIF
B9: PRDX2 (protein, UniProt P32119 1-198)
chain: MASGNARIGKPAPDFKATAVVDGAFKEVKLSDYKGKYVVLFFYPLDFTFVCPTEIIAFSNRAEDFRKLGCEVLGVSVDSQFTHLAWINTPRKEGGLGPLNIPLLADVTRRLSEDYGVLKTDEGIAYRGLFIIDGKGVLRQITVNDLPVGRSVDEALRLVQAFQYTDEHGEVCPAGWKPGSDTIKPNVDDSKEYFSKHN
B10: YWHAG (protein, UniProt P61981 1-247)
chain: MVDREQLVQKARLAEQAERYDDMAAAMKNVTELNEPLSNEERNLLSVAYKNVVGARRSSWRVISSIEQKTSADGNEKKIEMVRAYREKIEKELEAVCQDVLSLLDNYLIKNCSETQYESKVFYLKMKGDYYRYLAEVATGEKRATVVESSEKAYSEAHEISKEHMQPTHPIRLGLALNYSVFYYEIQNAPEQACHLAKTAFDDAIAELDTLNEDSYKDSTLIMQLLRDNLTLWTSDQQDDDGGEGNN
B11: UGP2 (protein, UniProt Q16851 1-508)
chain: MSRFVQDLSKAMSQDGASQFQEVIRQELELSVKKELEKILTTASSHEFEHTKKDLDGFRKLFHRFLQEKGPSVDWGKIQRPPEDSIQPYEKIKARGLPDNISSVLNKLVVVKLNGGLGTSMGCKGPKSLIGVRNENTFLDLTVQQIEHLNKTYNTDVPLVLMNSFNTDEDTKKILQKYNHCRVKIYTFNQSRYPRINKESLLPVAKDVSYSGENTEAWYPPGHGDIYASFYNSGLLDTFIGEGKEYIFVSNIDNLGATVDLYILNHLMNPPNGKRCEFVMEVTNKTRADVKGGTLTQYEGKLRLVEIAQVPKAHVDEFKSVSKFKIFNTNNLWISLAAVKRLQEQNAIDMEIIVNAKTLDGGLNVIQLETAVGAAIKSFENSLGINVPRSRFLPVKTTSDLLLVMSNLYSLNAGSLTMSEKREFPTVPLVKLGSSFTKVQDYLRRFESIPDMLELDHLTVSGDVTFGKNVSLKGTVIIIANHGDRIDIPPGAVLENKIVSGNLRILDH

molecular target: U2AF2-TurboID-HA (human) (UniProt P26368); assay: proximity labelling; U2AF2-TurboID-HA induced with doxycycline for 4 h in mesoderm cells differentiated from hiPSC (CHIR99021, 24 h); biotinylated proteins purified on streptavidin magnetic beads, LC-MS with label-free quantification; hits: Log2ΔLFQ >= 2 and p <= 0.05, mesoderm against pluripotent U2AF2-TurboID samples or against GFP-TurboID

How did the binding turn out when TCF12 (from UniProt Q99081 1-682) was run?
The binding was “binds”.

With FUBP1 (from UniProt Q96AE4 1-644) as the molecule, how does the binding read?
The binding was “binds”.

How did the binding turn out when IPO5 (from UniProt O00410 1-1097) was run?
Its binding is “binds”.

How did the binding turn out when EIF1AY (from UniProt O14602 1-144) was run?
Its binding is “binds”.

For MIXL1 (from UniProt Q9H2W2 1-232), which binding is on record?
Its binding is “binds”.

How did the binding turn out when HMGA1 (from UniProt P17096 1-107) was run?
The binding was “binds”.

For ZNF638 (from UniProt Q14966 1-1978), which binding is on record?
Its binding is “binds”.

Which binding does the source give for NDUFB11 (from UniProt Q9NX14 30-153) here?
The binding was “binds”.

KPNB1 (from UniProt Q14974 1-876) was tested. Which binding did it give?
The binding was “binds”.

With EWSR1 (from UniProt Q01844 1-656) as the molecule, how does the binding read?
The binding was “binds”.

With IK (from UniProt Q13123 1-557) as the molecule, how does the binding read?
Its binding is “binds”.

How did the binding turn out when NDUFS6 (from UniProt O75380 29-124) was run?
Its binding is “binds”.

Which binding does the source give for TAGLN (from UniProt Q01995 1-201) here?
Its binding is “binds”.

Which binding does the source give for U2SURP (from UniProt O15042 1-1029) here?
The binding was “binds”.

How did the binding turn out when NOLC1 (from UniProt Q14978 1-699) was run?
Its binding is “binds”.

How did the binding turn out when PRPF40A (from UniProt O75400 1-957) was run?
The binding was “binds”.

For DDX5 (from UniProt P17844 1-614), which binding is on record?
Its binding is “binds”.

How did the binding turn out when LLPH (from UniProt Q9BRT6 1-129) was run?
The binding was “binds”.

With CKB (from UniProt P12277 1-381) as the molecule, how does the binding read?
Its binding is “binds”.

Which binding does the source give for NASP (from UniProt P49321 1-788) here?
The binding was “binds”.

With COL4A1 (from UniProt P02462) as the molecule, how does the binding read?
The binding was “binds”.

SEC61B (from UniProt P60468 1-96) was tested. Which binding did it give?
The binding was “binds”.

SON (from UniProt P18583 1-2426) was tested. Which binding did it give?
Its binding is “binds”.

With B1 as the molecule, how does the binding read?
Its binding is “binds”.

B2 was tested. Which binding did it give?
Its binding is “binds”.

Which binding does the source give for B3 here?
Its binding is “binds”.

With B4 as the molecule, how does the binding read?
The binding was “binds”.

For B5, which binding is on record?
The binding was “binds”.

For B6, which binding is on record?
Its binding is “binds”.

How did the binding turn out when B7 was run?
Its binding is “binds”.

molecular target: U2AF2-TurboID-HA (human) (UniProt P26368); assay: proximity labelling; U2AF2-TurboID-HA induced with doxycycline for 4 h in pluripotent hiPSC; biotinylated proteins purified on streptavidin magnetic beads, LC-MS with label-free quantification; hits: Log2ΔLFQ >= 2 and p <= 0.05, pluripotent against mesoderm U2AF2-TurboID samples

How did the binding turn out when B8 was run?
Its binding is “binds”.

B9 was tested. Which binding did it give?
Its binding is “binds”.

B10 was tested. Which binding did it give?
The binding was “binds”.

Which binding does the source give for B11 here?
The binding was “binds”.
